Some of the results follow. Further columns of the screen follow, without active or inactive calls. The list favours compounds with an active or inconclusive main result. Potencies come from curve fits of mixed quality, noted in brackets.
Assay: qHTS Assay to Find Inhibitors of Chronic Active B-Cell Receptor Signaling
Settings: ABC-DLBCL IkBa-CBG/CBR reporter, luminescence ratio (green luciferase fused to IkBa over red control in TMD8 lymphoma cells), 4 h
Method in brief: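 Concentration-response series (up to 46 uM) were applied to TMD8 dual-reporter cells for 4 h at 37C with doxycycline. Green/red ratio, after filter-overlap correction, defined %Activity; red signal alone was normalised to basal cells and zero luminescence.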

[1] = measured here: CBR red luminescence, cell number
[2] = measured here: IkBa-CBG green luminescence

Row | SMILES | AC50 [1] | AC50 [2]
1 | C(=N\Nc1nncc2ccccc12)/c1ccccc1 | 12.6 µM [falling, single point] | 
2 | COc1cc(Cn2c(N)c(C#N)c3nc4ccccc4nc32)cc(OC)c1 | 25.1 µM [falling, single point] | 
3 | N#CC(C(=O)NC1CC1)c1nc2ccccc2nc1N1CCCC1 (stereo not given) | 17.8 µM [falling, partial curve, poor fit] | 
4 | Cc1ccc(N2CCN(C(=O)c3cc(COc4c(C)cccc4C)on3)CC2)c(C)c1 | 0.355 µM [rising, partial curve, poor fit] | 
5 | COc1ccc2c(c1)CCC1C2=NN(/C(C)=C/C(C)=O)C1c1cccc(F)c1 (stereo not given) | 2.24 µM [rising, partial curve, poor fit] | 
6 | COc1ccc([C@H]2CC(=O)C=C(c3ccc(C)cc3)C2)cc1 |  | 25.9 µM [rising, partial curve, poor fit]
7 | O=C(O)CC12CC3CC(C1)CC(n1ncc(NCc4ccccc4)c(Cl)c1=O)(C3)C2 | 12.6 µM [rising, partial curve, poor fit] | 
8 | CCN(C(=O)/C=C/c1ccc2c(c1)OCO2)c1ccccc1 | 0.92 µM [falling, full curve, poor fit] | 
9 | CCCNC(=O)C1(CC2CC(c3ccccc3)=NO2)CCN(C(=O)c2ccccc2)CC1 (stereo not given) | 8.2 µM [rising, partial curve, poor fit] | 
10 | O=C(Cc1ccc(Cl)cc1)Nc1ccc(N2CCN(C(=O)c3ccco3)CC2)c(Cl)c1 | 22.4 µM [falling, single point] | 
11 | Cc1noc(C)c1CSc1nc2ccccc2s1 | 2.91 µM [rising, partial curve, poor fit] | 
12 | Cc1ccc(NC(=O)Nc2nnc(Cc3ccc(F)cc3)s2)cc1 | 20 µM [rising, partial curve] | 
13 | Cc1c(OC(C)C(=O)NCc2ccccn2)ccc2c3c(c(=O)oc12)CCC3 (stereo not given) | 3.55 µM [rising, single point] | 
14 | Cc1ccc2c(C)nc(N/C(N)=N/S(=O)(=O)c3ccc([N+](=O)[O-])cc3)nc2c1 | 10.3 µM [rising, partial curve, poor fit] | 
15 | COc1cc(-c2cc(C(=O)Nc3ccc(C)c(S(=O)(=O)N4CCOCC4)c3)c3ccccc3n2)cc(OC)c1OC | 0.103 µM [rising, full curve, poor fit] | 
16 | O=C(Cn1cccc1)Nc1ccc(OC(F)(F)F)cc1 | 2.24 µM [rising, full curve, poor fit] | 
17 | CCN(CC(=O)NC(C)C)Cc1nc2c(Br)cc(Br)cc2c(=O)[nH]1 | 11.2 µM [falling, partial curve] | 
18 | CN(C)S(=O)(=O)n1cc(/C=C(\NC(=O)c2ccccc2F)C(=O)NCCCn2ccnc2)c2ccccc21 | 14.1 µM [falling, partial curve, poor fit] | 
19 | OC(c1cc(C(F)(F)F)nc2c(C(F)(F)F)cccc12)C1CCCCN1 (stereo not given) | 23.1 µM [falling, partial curve, poor fit] | 1.84 µM [rising, full curve, poor fit]
20 | Clc1ccc(OCCN2CCOCC2)cc1Cl | 29.1 µM [rising, single point] | 
21 | Cc1ccc(S(=O)(=O)N2CCCC(C(=O)Nc3cccnc3)C2)cc1 (stereo not given) | 20.6 µM [falling, single point] | 

Retrieved one by one from the entries so far, 2 records:
Row | SMILES | AC50 [1] | AC50 [2]
12 | Cc1ccc(NC(=O)Nc2nnc(Cc3ccc(F)cc3)s2)cc1 | 20 µM [rising, partial curve] | 
19 | OC(c1cc(C(F)(F)F)nc2c(C(F)(F)F)cccc12)C1CCCCN1 (stereo not given) | 23.1 µM [falling, partial curve, poor fit] | 1.84 µM [rising, full curve, poor fit]

(cont.)

Row | SMILES | AC50 [1] | AC50 [2]
22 | COc1cc(N=Cc2c(O)c3ccccc3oc2=O)c(OC)cc1Cl | 1 µM [falling, full curve, poor fit] | 
23 | COc1ccccc1N1CCN(C(=O)c2cc3c(=O)n4ccccc4nc3s2)CC1 | 1.3 µM [rising, full curve] | 
24 | Cc1c(NC(=O)/C(C#N)=C/c2ccc(-c3ccc(Cl)cc3)o2)c(=O)n(-c2ccccc2)n1C | 20.6 µM [falling, single point] | 
25 | COc1ccc(/C=C/c2nc3ccccc3n2C)cc1 | 10 µM [falling, partial curve, poor fit] | 
26 | CCOC(=O)c1ccccc1NC(=O)c1cc2ccccc2o1 | 0.398 µM [falling, full curve, poor fit] | 
27 | O=C(NC1CC2CCCC(C1)N2C(=O)NC1CCCCC1)c1ccccc1 (stereo not given) | 20.6 µM [falling, single point] | 
28 | Fc1ccc(CO/N=C/C2=C(Cl)c3ccccc3CC2)cc1 | 22.4 µM [rising, single point] | 
29 | COc1ccc(Br)cc1S(=O)(=O)N1CCOCC1 | 20.6 µM [rising, single point] | 
30 | O=C(NNc1ncnc2sccc12)c1ccc(Cl)cc1 | 15.8 µM [falling, single point] | 
31 | Cc1ccc(C)c(C(=O)CSc2nc3ccccc3c(=O)[nH]2)c1 | 10 µM [rising, partial curve, poor fit] | 
32 | CC(=O)c1ccccc1NC(=O)COC(=O)c1ccccc1NC(=O)c1ccccc1 | 4.61 µM [falling, partial curve] | 
33 | CCOc1ccc(N=C(/C(C(=O)C(=O)N2CCOCC2)=C(/O)c2ccccc2)c2ccccc2)cc1 | 15.8 µM [falling, partial curve, poor fit] | 
34 | O=c1c2cn[nH]c2nc(SCc2ccc3c(c2)OCCO3)n1-c1ccccc1 | 20.6 µM [falling, single point] | 
35 | CC(=O)CC1(C)OC(N)=C(C#N)C1(C#N)C#N (stereo not given) | 35.5 µM [falling, single point] | 
36 | COc1ccc2cc(C(=O)/C=C/c3cc(OC)c(O)c(OC)c3)ccc2c1 | 20 µM [falling, partial curve, poor fit] | 
37 | COc1cc(OC)cc(C(=O)Nc2cccc(NC(=O)c3ccccc3)c2)c1 | 15.8 µM [falling, partial curve] | 
38 | O=C(NC(=S)Nc1cccc(NC(=O)c2ccccc2Cl)c1)c1cccs1 | 2.31 µM [falling, full curve] | 
39 | c1ccc(-c2noc(-c3cccs3)n2)nc1 | 25.9 µM [falling, single point] | 
40 | Cc1cccc(C)c1NC(=O)C(=O)c1cn(C)c2ccccc12 | 12.6 µM [falling, partial curve, poor fit] | 
41 | Cn1c(CNC(=O)c2ccco2)nnc1SCC(=O)c1ccc(Br)cc1 | 1.26 µM [rising, full curve, poor fit] | 
42 | O=C(O)c1cc(N/N=C/C=C/c2ccccc2)ccc1Cl | 3.16 µM [falling, partial curve] | 

Single records, from the list above:
Cc1noc(C)c1CSc1nc2ccccc2s1 in the list: AC50 [1]: 2.91 µM [rising, partial curve, poor fit]
COc1cc(N=Cc2c(O)c3ccccc3oc2=O)c(OC)cc1Cl in the list: AC50 [1]: 1 µM [falling, full curve, poor fit]

(continued)

Row | SMILES | AC50 [1] | AC50 [2]
43 | CSc1nc(C)c2c(c1C#N)CCCC2 | 29.1 µM [rising, partial curve, poor fit] | 20.6 µM [falling, single point]
44 | COc1ccc([C@H]2[C@H](C(=O)C(C)(C)C)N3N=Cc4ccccc4C3C23C(=O)OC(C)(C)OC3=O)cc1 (stereo not given in full) | 0.461 µM [rising, partial curve, poor fit] | 
45 | COc1ccc(C2CC(=O)c3cnc(NC(=O)c4cc(OC)cc(OC)c4)nc3C2)cc1 (stereo not given) | 11.2 µM [falling, partial curve] | 
46 | O=C(Nc1ccccc1)Nc1ccc2ocnc2c1 | 20 µM [falling, single point] | 
47 | Cc1cc(C)c2c(=O)[nH]n(C3CC(C)N(C)CC3C)c2n1 (stereo not given) | 25.9 µM [rising, single point] | 
48 | CC1CCC(NC(=O)Nc2cccs2)CC1 (stereo not given) | 0.82 µM [rising, full curve, poor fit] | 
49 | COc1ccc(N2C(=O)C3C(C2=O)C(C(=O)c2ccc(Cl)cc2)N2CCCC32)cc1 (stereo not given) | 28.2 µM [falling, single point] | 
50 | CC(CC(=O)N(C)c1c(N)n(Cc2ccccc2)c(=O)[nH]c1=O)c1ccccc1 (stereo not given) | 0.291 µM [rising, full curve, poor fit] | 
51 | CCN(CC(=O)NC(C)(C)C)C(=O)COc1c(Cl)cc(Cl)c2ccc(C)nc12 | 35.5 µM [rising, single point] | 35.5 µM [falling, single point]
52 | CC1CCCN(CCOCCOc2ccc(Cl)cc2Br)C1 (stereo not given) | 4.47 µM [falling, partial curve] | 
53 | CCCOc1cccc(C(=O)Nc2ccc3c(c2)OCCO3)c1 | 20 µM [falling, partial curve, poor fit] | 
54 | O=C(O)c1ccccc1C(=O)c1ccc(Sc2ccc(Cl)cc2)c([N+](=O)[O-])c1 | 14.1 µM [falling, single point] | 
55 | O=C(NCc1ccccn1)C1CCN(Cc2cnn(-c3ccccc3)c2-n2cccc2)CC1 | 6.51 µM [rising, single point] | 
56 | COc1ccccc1Oc1ccc(S(=O)(=O)NCc2ccccn2)cc1 | 0.92 µM [rising, partial curve] | 
57 | COc1ccccc1C(=O)Nc1nc(N)n(-c2ccccc2)n1 | 35.5 µM [falling, single point] | 
58 | CCOC(=O)c1c(NC(=O)c2cccs2)sc2c1CC(C)(C)OC2 | 11.2 µM [rising, partial curve, poor fit] | 
59 | COCCC(=O)N1CCC(Oc2ccc(C(=O)NCc3ncc(C)[nH]3)cc2)CC1 | 3.16 µM [falling, single point] | 
60 | CCc1ccc(N2C(=O)CN(Cc3ccccc3)C2=S)cc1 | 35.5 µM [rising, single point] | 
61 | O=C1OC[C@@H]2CCCN2C(=O)[C@@H](CC(=O)N(CCO)Cc2ccccc2)C/C=C\CC[C@H]1Cc1ccc(F)cc1 | 8.2 µM [falling, partial curve, poor fit] | 
62 | Cc1ccc(-c2cc(C(=O)NC(C)c3ccccc3)c3ccccc3n2)cc1C (stereo not given) | 15.8 µM [rising, single point] | 
